From publication PMC4818453
These are yes or no findings as the source states them, for the method shown. Binding seen in cells or lysates may run through a third protein. A result given as binding can be weak or reduced; the word gives no strength. Where a sequence is shown, tags or fusion partners need not be part of it.

Biological target: T1, full-length GST-CASK (rat) (UniProt Q62915)
T1 sequence: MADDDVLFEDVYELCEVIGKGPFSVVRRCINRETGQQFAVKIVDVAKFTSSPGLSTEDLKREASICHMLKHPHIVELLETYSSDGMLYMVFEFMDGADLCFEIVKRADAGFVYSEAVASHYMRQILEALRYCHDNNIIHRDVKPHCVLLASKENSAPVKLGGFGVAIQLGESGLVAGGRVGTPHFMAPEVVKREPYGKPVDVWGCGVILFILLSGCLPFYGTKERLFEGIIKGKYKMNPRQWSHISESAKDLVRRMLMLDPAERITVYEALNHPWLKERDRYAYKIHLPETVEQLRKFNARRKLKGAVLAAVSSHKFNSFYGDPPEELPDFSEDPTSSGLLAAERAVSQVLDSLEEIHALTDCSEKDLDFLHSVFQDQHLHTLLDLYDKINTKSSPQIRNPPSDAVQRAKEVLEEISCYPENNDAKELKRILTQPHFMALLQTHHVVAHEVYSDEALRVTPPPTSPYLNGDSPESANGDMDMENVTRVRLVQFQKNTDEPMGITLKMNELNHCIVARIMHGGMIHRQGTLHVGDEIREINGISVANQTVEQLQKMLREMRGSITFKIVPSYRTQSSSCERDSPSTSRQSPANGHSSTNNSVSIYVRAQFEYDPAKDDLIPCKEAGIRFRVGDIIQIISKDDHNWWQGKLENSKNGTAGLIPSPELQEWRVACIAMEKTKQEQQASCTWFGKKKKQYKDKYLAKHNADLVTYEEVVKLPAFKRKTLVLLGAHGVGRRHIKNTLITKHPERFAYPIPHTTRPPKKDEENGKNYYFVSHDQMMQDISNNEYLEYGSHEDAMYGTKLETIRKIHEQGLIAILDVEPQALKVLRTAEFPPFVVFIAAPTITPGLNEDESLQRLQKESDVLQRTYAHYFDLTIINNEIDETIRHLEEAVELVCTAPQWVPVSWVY
Experiment: pull-down; full-length GST-CASK or GST immobilised on glutathione resin; rat brain homogenate; bound proteins detected by immunoblot; only the target purified

isocitrate dehydrogenase (IDH)
binding: binds
